Experimental data as given in publication PMC6208767.
These are yes or no findings as the source states them, for the method shown. Binding seen in cells or lysates may run through a third protein. These calls come from enrichment with a bait or labelling near it, and not all partners need be listed. No binding means not detected with the bait.

Sequences of proteins named here, by UniProt entry; tags and fusion partners are left off. A change or cut given only in a name is not applied to a line headed by its entry.
UniProt Q22A67: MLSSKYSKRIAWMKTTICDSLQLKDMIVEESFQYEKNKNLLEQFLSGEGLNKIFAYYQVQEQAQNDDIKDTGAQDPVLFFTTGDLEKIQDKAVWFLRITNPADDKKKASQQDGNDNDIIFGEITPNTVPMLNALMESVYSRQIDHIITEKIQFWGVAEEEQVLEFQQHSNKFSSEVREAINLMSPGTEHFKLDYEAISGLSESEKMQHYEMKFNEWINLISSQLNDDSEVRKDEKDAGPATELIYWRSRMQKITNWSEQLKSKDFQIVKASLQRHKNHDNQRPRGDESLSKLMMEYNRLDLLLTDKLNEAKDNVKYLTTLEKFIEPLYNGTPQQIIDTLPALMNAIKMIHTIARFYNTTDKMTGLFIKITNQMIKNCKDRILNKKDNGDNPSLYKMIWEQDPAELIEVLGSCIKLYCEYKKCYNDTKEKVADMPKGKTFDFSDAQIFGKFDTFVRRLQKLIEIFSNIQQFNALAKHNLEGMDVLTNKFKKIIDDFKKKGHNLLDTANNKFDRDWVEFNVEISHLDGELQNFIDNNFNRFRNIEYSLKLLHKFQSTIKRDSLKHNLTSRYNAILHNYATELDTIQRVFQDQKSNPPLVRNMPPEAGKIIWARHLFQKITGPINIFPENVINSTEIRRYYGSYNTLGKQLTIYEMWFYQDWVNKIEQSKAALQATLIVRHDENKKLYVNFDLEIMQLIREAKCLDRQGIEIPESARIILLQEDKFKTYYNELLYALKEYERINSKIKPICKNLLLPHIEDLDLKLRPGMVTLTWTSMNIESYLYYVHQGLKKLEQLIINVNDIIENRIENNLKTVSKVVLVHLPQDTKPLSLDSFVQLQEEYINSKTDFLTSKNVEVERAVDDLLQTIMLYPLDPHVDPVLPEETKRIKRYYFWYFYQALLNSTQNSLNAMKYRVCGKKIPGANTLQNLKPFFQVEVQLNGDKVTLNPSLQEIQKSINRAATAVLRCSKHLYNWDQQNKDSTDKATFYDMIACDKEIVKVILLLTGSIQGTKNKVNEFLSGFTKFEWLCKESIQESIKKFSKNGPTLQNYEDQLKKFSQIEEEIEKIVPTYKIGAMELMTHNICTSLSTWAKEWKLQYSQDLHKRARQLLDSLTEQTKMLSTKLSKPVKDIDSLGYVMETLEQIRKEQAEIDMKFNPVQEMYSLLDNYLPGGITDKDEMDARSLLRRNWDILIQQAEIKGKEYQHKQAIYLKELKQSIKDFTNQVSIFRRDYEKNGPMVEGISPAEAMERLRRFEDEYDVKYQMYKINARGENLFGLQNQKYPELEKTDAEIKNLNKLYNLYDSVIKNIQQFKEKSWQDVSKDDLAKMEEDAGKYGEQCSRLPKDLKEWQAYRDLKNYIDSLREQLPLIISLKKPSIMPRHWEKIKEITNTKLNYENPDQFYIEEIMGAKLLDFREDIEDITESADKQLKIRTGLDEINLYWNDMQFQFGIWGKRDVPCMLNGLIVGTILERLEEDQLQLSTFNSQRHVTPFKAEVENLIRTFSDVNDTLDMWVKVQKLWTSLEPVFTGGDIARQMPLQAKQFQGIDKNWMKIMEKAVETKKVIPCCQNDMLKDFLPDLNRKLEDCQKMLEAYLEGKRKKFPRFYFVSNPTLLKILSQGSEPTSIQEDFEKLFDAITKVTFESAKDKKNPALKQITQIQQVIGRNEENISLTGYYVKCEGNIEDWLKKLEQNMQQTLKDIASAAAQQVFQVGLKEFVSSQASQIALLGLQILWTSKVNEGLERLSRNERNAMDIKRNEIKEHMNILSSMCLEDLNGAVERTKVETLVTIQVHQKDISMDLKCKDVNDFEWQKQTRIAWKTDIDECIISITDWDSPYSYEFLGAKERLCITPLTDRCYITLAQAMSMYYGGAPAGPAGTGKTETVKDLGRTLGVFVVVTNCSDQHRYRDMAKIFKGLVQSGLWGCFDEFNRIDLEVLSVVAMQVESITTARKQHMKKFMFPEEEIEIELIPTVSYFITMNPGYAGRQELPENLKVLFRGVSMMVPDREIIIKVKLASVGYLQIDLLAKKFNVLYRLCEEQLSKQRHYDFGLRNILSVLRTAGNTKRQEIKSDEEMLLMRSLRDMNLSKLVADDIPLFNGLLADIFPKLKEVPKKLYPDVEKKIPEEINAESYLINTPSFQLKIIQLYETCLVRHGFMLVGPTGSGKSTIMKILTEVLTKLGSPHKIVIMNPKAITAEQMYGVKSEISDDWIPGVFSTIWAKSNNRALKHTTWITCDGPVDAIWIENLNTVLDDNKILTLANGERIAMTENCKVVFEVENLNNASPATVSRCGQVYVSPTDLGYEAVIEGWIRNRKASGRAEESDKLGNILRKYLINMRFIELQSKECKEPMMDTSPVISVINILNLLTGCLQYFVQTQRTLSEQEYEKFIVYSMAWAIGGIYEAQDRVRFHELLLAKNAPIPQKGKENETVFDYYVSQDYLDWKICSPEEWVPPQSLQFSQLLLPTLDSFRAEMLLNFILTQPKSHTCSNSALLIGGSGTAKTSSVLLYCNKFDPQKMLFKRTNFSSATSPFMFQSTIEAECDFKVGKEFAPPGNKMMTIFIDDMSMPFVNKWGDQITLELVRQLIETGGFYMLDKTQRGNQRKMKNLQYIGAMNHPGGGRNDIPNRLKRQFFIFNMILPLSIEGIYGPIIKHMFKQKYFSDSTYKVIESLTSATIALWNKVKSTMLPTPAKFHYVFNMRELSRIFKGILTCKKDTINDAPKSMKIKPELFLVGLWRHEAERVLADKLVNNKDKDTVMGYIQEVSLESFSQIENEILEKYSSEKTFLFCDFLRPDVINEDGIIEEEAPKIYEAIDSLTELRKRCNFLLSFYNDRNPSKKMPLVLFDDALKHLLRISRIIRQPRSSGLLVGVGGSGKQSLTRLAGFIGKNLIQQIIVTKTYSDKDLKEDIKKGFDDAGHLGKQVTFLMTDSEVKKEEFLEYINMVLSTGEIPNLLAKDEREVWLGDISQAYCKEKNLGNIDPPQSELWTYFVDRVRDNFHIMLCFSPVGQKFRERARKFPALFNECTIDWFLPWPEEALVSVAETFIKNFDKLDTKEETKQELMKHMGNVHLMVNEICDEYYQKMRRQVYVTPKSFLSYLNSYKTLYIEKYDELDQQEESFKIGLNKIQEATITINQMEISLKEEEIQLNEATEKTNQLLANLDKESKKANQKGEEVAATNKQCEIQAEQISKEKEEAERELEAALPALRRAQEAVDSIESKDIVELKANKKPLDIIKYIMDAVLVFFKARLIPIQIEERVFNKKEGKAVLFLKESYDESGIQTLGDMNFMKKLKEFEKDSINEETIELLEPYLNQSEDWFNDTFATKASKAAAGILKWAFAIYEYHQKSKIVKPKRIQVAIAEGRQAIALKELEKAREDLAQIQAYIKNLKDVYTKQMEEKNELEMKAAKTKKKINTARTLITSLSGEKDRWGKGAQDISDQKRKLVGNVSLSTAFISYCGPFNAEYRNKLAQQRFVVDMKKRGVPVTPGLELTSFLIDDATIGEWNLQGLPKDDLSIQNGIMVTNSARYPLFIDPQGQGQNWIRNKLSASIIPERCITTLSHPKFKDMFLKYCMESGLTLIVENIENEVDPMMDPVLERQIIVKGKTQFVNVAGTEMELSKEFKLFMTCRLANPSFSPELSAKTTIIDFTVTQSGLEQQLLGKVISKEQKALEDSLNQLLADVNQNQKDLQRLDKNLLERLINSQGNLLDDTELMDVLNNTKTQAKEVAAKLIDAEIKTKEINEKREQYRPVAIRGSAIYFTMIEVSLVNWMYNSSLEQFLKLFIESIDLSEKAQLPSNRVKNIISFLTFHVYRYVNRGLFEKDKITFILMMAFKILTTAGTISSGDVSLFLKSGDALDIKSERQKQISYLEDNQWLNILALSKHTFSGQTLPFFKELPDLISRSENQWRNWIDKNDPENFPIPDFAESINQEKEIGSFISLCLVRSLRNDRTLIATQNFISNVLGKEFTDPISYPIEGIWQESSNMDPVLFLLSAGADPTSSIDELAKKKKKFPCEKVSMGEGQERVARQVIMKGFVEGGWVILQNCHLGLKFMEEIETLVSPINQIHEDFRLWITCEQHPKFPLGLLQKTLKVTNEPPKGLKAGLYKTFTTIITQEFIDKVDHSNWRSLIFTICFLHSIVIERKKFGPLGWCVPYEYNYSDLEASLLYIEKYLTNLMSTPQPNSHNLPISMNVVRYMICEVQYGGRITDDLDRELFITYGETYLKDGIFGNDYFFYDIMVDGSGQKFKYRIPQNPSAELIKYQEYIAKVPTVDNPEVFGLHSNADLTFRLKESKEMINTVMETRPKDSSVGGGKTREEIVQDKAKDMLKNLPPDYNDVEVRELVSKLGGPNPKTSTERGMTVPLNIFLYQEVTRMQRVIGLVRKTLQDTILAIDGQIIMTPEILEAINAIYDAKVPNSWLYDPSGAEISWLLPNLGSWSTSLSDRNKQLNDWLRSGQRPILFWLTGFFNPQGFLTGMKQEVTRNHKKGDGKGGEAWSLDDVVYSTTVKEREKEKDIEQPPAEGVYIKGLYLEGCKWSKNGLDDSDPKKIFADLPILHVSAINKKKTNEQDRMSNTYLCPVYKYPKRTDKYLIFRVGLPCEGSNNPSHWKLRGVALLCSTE
UniProt I7LY62: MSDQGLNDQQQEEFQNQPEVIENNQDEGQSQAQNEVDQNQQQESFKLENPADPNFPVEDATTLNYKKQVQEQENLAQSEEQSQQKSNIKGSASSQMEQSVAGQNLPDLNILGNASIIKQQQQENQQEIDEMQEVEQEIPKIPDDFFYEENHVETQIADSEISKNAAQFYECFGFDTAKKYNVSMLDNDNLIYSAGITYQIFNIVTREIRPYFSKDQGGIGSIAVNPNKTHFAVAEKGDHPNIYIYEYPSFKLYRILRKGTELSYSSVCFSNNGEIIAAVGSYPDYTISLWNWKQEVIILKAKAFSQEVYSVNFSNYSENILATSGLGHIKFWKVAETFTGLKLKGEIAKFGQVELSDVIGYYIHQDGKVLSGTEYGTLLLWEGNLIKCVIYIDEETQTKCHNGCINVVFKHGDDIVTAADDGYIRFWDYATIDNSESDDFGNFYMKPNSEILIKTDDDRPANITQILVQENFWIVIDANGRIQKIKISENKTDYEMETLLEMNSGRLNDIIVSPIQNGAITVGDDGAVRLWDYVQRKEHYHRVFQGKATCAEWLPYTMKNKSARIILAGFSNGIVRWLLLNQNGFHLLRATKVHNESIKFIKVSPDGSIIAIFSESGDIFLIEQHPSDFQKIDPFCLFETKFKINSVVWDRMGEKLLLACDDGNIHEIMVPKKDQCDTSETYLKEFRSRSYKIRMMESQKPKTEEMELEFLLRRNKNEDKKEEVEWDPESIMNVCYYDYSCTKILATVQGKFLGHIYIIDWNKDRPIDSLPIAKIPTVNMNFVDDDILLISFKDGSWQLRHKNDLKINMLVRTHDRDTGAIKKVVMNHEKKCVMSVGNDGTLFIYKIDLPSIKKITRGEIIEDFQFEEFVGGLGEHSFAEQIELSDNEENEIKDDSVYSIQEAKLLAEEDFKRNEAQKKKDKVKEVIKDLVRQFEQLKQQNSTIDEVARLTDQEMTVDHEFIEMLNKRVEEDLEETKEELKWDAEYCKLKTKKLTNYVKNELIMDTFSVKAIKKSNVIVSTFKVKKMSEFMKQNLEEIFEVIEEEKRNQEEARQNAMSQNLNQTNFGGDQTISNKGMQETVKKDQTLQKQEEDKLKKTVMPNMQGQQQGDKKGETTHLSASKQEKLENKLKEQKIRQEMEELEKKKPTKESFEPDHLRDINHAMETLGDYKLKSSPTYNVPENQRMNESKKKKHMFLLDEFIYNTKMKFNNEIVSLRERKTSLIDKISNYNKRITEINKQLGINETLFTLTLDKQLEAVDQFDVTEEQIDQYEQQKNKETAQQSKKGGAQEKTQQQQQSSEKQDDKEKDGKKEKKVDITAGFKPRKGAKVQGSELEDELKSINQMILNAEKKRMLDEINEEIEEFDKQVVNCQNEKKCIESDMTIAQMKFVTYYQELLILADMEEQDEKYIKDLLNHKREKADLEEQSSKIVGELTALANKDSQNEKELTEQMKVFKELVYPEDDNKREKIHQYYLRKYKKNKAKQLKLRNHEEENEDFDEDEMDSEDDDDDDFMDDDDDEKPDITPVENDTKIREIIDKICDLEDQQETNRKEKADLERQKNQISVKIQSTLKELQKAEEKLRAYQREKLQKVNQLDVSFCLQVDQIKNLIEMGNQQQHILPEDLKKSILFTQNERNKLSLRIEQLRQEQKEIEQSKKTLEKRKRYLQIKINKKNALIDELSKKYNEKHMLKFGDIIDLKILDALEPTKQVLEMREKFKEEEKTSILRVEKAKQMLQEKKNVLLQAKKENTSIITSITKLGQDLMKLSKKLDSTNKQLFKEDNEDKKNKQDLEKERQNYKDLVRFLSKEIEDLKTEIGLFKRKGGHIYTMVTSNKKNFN

Target: GFP–Fap43p (overexpressed, N-terminally GFP-tagged full-length Fap43p) (Tetrahymena thermophila) (UniProt Q23K15)
Assay: affinity purification with mass spectrometry; GFP–Fap43p immunoprecipitated with anti-GFP antibodies (GFP-Trap resin) from the cytoskeletal fraction of cells overexpressing GFP–Fap43p; cells overexpressing GFP alone as control

Row | binding | Substance
1 | no binding | Dyh3p, dynein heavy chain of the outer dynein arm (from UniProt Q22A67 1-4620)
2 | no binding | Dyh4p, dynein heavy chain of the outer dynein arm (from UniProt I7M9J2 1-4595)
3 | no binding | Dyh5, dynein heavy chain of the outer dynein arm (from UniProt I7M6H4 1-4168)
4 | binds | Fap44p (ortholog of Chlamydomonas Fap44p) (from UniProt I7LY62)
